Experimental data reported in publication PMC10279719.
Residue numbers refer to the chain shown, from its start. These are yes or no findings as the source states them, for the method shown. For part of these data: Binding seen in cells or lysates may run through a third protein. For part of these data: Tags and fused reporters may be left off the sequences shown.

Legend:
[1] = biological target: T1, HA-tagged PEAK3^FL-C453E (human) (UniProt Q6ZS72); experiment: co-IP; HEK293 cells transfected with HA-PEAK3^FL forms (alone or with Flag-PEAK3^FL WT), lysates on anti-HA agarose at 4 °C overnight, Western blot
T1 sequence: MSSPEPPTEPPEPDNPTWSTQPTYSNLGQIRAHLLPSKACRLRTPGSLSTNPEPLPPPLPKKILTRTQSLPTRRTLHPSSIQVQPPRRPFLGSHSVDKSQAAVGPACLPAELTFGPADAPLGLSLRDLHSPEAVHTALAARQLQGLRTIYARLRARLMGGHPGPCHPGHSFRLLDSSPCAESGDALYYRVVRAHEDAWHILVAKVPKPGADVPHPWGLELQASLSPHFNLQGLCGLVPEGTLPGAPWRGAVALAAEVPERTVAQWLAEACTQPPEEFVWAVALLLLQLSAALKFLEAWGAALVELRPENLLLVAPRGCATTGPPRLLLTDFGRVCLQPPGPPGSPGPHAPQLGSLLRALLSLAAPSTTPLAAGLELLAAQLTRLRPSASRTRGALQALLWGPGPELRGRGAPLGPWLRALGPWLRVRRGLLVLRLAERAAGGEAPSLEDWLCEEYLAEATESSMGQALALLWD

[2] = biological target: T2, HA-tagged PEAK3^FL-L146E (human) (UniProt Q6ZS72); experiment: as above
T2 sequence: T1 sequence with L146E, E453C

[3] = biological target: T3, HA-tagged PEAK3^FL-A436E (human) (UniProt Q6ZS72); experiment: as above
T3 sequence: T1 sequence with A436E, E453C

[4] = biological target: T4, HA-tagged PEAK3FL-S69A (human) (UniProt Q6ZS72); experiment: as above
T4 sequence: T1 sequence with S69A, E453C

[5] = biological target: T4, HA-tagged PEAK3FL-S69A (human); experiment: co-IP; anti-HA agarose IP from lysates of HEK293 cells expressing HA-PEAK3FL WT or mutants (alone or with Flag-PEAK3FL WT), Western blot
[6] = biological target: T5, PEAK1^IDR1 (residues 1082-1746), from insect cells (human) (UniProt Q9H792); experiment: condition: 1000 nM (highest concentration of the series); SPR; biotinylated PEAK proteins (with or without Src phosphorylation) captured with a biotin CAPture kit, 14-3-3γ as analyte; multi-cycle, 8 points, 3-fold dilutions, 0.46-1000 nM, 60 s contact, 300 s dissociation; bivalent analyte model for the estimate; both purified
T5 sequence (chain, biotin (EZ-Link NHS-PEG4-Biotin, 1,1 molar ratio)): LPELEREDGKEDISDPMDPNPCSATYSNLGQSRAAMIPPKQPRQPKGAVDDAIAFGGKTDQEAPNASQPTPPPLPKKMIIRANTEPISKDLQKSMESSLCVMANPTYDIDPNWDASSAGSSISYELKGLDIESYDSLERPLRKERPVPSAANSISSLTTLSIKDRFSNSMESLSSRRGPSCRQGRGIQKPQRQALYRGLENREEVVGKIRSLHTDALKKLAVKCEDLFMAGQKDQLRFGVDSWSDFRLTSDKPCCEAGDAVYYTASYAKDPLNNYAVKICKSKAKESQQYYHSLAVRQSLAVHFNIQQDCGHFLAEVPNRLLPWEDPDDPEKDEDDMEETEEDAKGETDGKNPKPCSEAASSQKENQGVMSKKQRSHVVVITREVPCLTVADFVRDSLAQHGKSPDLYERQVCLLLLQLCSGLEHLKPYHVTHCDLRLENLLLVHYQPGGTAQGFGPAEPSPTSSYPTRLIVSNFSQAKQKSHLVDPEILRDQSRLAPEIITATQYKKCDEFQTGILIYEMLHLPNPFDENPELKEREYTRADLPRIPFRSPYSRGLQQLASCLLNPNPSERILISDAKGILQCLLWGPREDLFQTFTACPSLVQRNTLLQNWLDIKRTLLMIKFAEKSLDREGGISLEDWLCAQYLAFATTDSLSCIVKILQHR

Measured: binding

endogenous 14-3-3 (HEK293) (human (endogenous in HEK293))
no binding: [1] | [2] | [3] | [4] | [5]

14-3-3γ (residues 1-247) (human)
no binding: [6]
